Drawing on article doi:10.1101/632331, this text covers binding for 2 molecules.

Protein sequences, listed by entry. Tags and fused reporters are not part of them.
UniProt Q99814: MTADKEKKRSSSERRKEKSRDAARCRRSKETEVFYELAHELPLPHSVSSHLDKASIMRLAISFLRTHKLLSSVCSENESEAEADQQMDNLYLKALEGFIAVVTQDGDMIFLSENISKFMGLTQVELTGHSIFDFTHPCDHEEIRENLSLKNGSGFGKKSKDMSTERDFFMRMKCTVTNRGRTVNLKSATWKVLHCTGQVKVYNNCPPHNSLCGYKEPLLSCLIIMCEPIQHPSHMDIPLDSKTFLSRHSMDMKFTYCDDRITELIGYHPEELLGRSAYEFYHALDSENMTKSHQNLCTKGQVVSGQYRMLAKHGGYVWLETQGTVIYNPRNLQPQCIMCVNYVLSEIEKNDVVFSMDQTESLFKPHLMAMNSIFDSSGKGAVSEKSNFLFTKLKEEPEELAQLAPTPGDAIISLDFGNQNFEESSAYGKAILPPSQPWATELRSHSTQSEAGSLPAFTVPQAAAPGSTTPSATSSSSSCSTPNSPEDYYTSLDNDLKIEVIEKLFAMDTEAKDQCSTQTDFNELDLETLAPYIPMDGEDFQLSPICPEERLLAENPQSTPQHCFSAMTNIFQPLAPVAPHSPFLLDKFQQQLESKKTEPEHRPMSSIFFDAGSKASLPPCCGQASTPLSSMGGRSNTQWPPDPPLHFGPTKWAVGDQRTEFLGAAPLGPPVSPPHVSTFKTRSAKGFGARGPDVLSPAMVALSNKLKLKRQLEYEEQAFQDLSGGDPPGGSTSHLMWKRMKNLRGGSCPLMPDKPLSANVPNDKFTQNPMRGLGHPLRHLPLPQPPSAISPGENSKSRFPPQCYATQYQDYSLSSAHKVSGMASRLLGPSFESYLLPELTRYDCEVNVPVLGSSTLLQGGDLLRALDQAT
UniProt O60573: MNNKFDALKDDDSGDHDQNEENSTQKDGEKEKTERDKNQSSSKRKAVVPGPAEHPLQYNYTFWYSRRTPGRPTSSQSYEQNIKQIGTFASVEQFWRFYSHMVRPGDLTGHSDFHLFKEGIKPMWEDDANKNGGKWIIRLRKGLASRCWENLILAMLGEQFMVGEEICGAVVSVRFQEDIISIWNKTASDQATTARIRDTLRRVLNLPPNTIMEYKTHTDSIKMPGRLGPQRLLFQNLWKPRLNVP

No constants are given. Whether binding was seen depends on the method and setting. In cells and extracts the contact can be indirect. Some entries that bind do so weakly or less than the wild type. Tags and fused reporters may be left off the sequences shown.

In one assay the target is FLAG-GFP-HIF-2α (UniProt Q99814). Briefly: co-IP.
For a further assay, the target named is FLAG-eIF4E2 (UniProt O60573). Briefly: co-IP.

B1: FLAG-DDX28 (DEAD box protein 28, C-terminal 3x FLAG) (protein, UniProt Q9NUL7 1-540)
chain: MALTRPVRLFSLVTRLLLAPRRGLTVRSPDEPLPVVRIPVALQRQLEQRQSRRRNLPRPVLVRPGPLLVSARRPELNQPARLTLGRWERAPLASQGWKSRRARRDHFSIERAQQEAPAVRKLSSKGSFADLGLEPRVLHALQEAAPEVVQPTTVQSSTIPSLLRGRHVVCAAETGSGKTLSYLLPLLQRLLGQPSLDSLPIPAPRGLVLVPSRELAQQVRAVAQPLGRSLGLLVRDLEGGHGMRRIRLQLSRQPSADVLVATPGALWKALKSRLISLEQLSFLVLDEADTLLDESFLELVDYILEKSHIAEGPADLEDPFNPKAQLVLVGATFPEGVGQLLNKVASPDAVTTITSSKLHCIMPHVKQTFLRLKGADKVAELVHILKHRDRAERTGPSGTVLVFCNSSSTVNWLGYILDDHKIQHLRLQGQMPALMRVGIFQSFQKSSRDILLCTDIASRGLDSTGVELVVNYDFPPTLQDYIHRAGRVGRVGSEVPGTVISFVTHPWDVSLVQKIELAARRRRSLPGLASSVKEPLPQAT
Take B1: the binding result in the assay with FLAG-GFP-HIF-2α is recorded as “binds”.

B2: DDX28 (as probed in the FLAG-eIF4E2 co-immunoprecipitation, Fig. 1D) (protein, UniProt Q9NUL7 1-540)
chain: MALTRPVRLFSLVTRLLLAPRRGLTVRSPDEPLPVVRIPVALQRQLEQRQSRRRNLPRPVLVRPGPLLVSARRPELNQPARLTLGRWERAPLASQGWKSRRARRDHFSIERAQQEAPAVRKLSSKGSFADLGLEPRVLHALQEAAPEVVQPTTVQSSTIPSLLRGRHVVCAAETGSGKTLSYLLPLLQRLLGQPSLDSLPIPAPRGLVLVPSRELAQQVRAVAQPLGRSLGLLVRDLEGGHGMRRIRLQLSRQPSADVLVATPGALWKALKSRLISLEQLSFLVLDEADTLLDESFLELVDYILEKSHIAEGPADLEDPFNPKAQLVLVGATFPEGVGQLLNKVASPDAVTTITSSKLHCIMPHVKQTFLRLKGADKVAELVHILKHRDRAERTGPSGTVLVFCNSSSTVNWLGYILDDHKIQHLRLQGQMPALMRVGIFQSFQKSSRDILLCTDIASRGLDSTGVELVVNYDFPPTLQDYIHRAGRVGRVGSEVPGTVISFVTHPWDVSLVQKIELAARRRRSLPGLASSVKEPLPQAT
B2: in the assay with FLAG-eIF4E2, the binding entry is reported as “no binding”.
